The supplement of paper PMC3334620
In all, about 33,000 sequences were measured (“E-score (-0.5 to 0.5)”: median about -0.016, highest 2% from about 0.3 on). The list shows a part of the results.

Molecular target: T1, Yer184c (UniProt P39961)
T1 sequence: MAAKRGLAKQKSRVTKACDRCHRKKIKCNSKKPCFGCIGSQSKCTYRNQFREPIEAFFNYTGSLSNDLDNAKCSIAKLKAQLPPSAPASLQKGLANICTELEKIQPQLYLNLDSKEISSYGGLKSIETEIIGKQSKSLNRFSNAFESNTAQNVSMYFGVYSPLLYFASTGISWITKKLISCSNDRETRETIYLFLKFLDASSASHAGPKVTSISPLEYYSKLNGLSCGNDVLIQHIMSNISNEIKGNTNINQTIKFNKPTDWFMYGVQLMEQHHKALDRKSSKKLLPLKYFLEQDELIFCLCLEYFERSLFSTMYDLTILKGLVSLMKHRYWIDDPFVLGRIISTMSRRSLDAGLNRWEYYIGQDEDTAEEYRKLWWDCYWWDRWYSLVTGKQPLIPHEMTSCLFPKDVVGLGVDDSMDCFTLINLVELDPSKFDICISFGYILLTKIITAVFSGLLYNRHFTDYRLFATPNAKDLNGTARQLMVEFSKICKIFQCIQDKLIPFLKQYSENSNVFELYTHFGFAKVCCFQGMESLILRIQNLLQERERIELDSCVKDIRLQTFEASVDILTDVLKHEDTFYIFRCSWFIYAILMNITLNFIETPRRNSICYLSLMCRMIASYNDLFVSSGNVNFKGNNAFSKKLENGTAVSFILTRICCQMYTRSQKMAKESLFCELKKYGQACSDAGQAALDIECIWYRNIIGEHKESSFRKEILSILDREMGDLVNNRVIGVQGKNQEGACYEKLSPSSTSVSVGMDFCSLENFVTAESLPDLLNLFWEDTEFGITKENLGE
Experiment: PBM E-score (8-mer binding enrichment) (E-score (-0.5 to 0.5)); higher = stronger / more preferred TF binding
Conditions: protein concentration: 100 nM; construct: GST-full length
Summary of the method: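 Detection of bound protein used fluorescent anti-GST, with scans normalised by masliner. The proteins were GST-tagged yeast transcription factors applied at about 100-200 nM to universal all-10-mer Agilent arrays made double-stranded by primer extension. Each ungapped eight-base word, pooled with its reverse complement, was scored with an E-score from the Universal PBM Analysis Suite.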

Sequence | PBM E-score
CGTCTGTA | 0.00576
GAGCGGGC | -0.0816
AGGATGAA | -0.0513
ATGGGCAC | -0.072
CTAGGACC | -0.323
AGTAGAGA | -0.034
CCCGCGTA | -0.114
CCCGACAA | 0.173
CTCGGTAC | -0.0149
TACCGGAA | 0.409
TGAGACCA | -0.115
ATCTGTTG | -0.125
AGCTGCGG | -0.0822
GCGCTATA | -0.127
CACGTTAA | -0.03
ACAGATCG | -0.0453
CTGCACGC | -0.179
AAGCCTAG | 0.0121
AAAGCTCA | -0.0916
AGACAATC | 0.0526
CTTAACAA | 0.139
GAAACCCA | 0.178
AGTCCCGG | 0.0687
ATAGCCTC | -0.105
AAACTTGG | -0.072

Sequence | PBM E-score
TGTCAACA | -0.0408
GCCGGATA | 0.354
GGGTTTCA | 0.0583
GGTCCCGA | 0.0929
CGCGCTAC | 0.0439
ATGTAACC | -0.0731
CAGACAAC | 0.053
ACACGGAG | 0.179
CTCTTTCC | -0.089
CCTACTGA | -0.151
ACTCGGTG | -0.008
TAAGCCCA | -0.143
AACGTCCC | -0.181
CGATCGCC | 0.152
CCAGCTAC | -0.255
GAAGTACA | 0.0369
AAAGGAGC | -0.0826
CACGCTAC | -0.0976
ACTGGTGG | -0.244
GGGTCGGA | 0.0158
GAACCTCA | 0.113
GTGGACAA | 0.0594
CGAGTGTC | 0.019
CTATTACA | -0.086
AAGGGTCC | -0.0051

Taken from above for reference:
Sequence | PBM E-score
CCAGCTAC | -0.255
GAAGTACA | 0.0369
AAAGGAGC | -0.0826
CACGCTAC | -0.0976
ACTGGTGG | -0.244
GGGTCGGA | 0.0158
GAACCTCA | 0.113

The results go on:

Sequence | PBM E-score
CAGCTTTA | 0.0988
AGCGCCTA | -0.0937
CGGGTGTC | -0.00111
ACTAGCCA | -0.0418
AAGACTCC | -0.264
CAAGTGGC | -0.0746
TCTCAAAA | 0.14
GCCAAGAA | -0.0167
CACCTGAC | -0.178
ATAAGCTG | -0.0629
ATTCGGGG | 0.155
CGCGCTTC | 0.00563
CGGCTCCC | 0.0852
GGAGTAAA | 0.134
ATCGCGCC | 0.0413
AACAGCTT | -0.0461
GGTTAGGA | -0.17
AACCATAT | -0.107
CGGAGCGA | 0.332
GCACCGTA | 0.0326
AATGATGT | 0.177
TGAGTCCA | 0.0121
GAAGCCTC | -0.124
AACTACAA | 0.207
AGTTCCGG | 0.374

Sequence | PBM E-score
GCCTTACC | -0.284
GGTGCGGA | 0.0232
ACTCAGAG | 0.063
TAGACATA | 0.144
AGACTCAT | -0.0316
CGCACAAA | 0.101
ATTCGGAA | 0.353
ACGAACCT | -0.0757
CTAGTATA | 0.162
ATCCAGCG | 0.187
AGGGTACT | -0.289
CAGCGGCG | 0.0785
CCTATCAA | -0.0578
TACTTAAA | 0.0478
CGCAGGAA | -0.2
AACGCTGA | -0.114
TGTAAAAA | 0.0838
CAGGATGA | -0.169
CGCCGCAA | 0.266
CGATTGCC | -0.0159
AGTGCACG | -0.114
ATCGCGTC | 0.0538
AGGTTTTA | -0.00415
CAATATGC | -0.126
ACTTGACT | -0.153

Sequence | PBM E-score
CGCTCCTA | -0.0585
CCTAGAAA | 0.0656
AGCAAAAG | -0.11
AAGTGTAT | -0.162
CTCGATAC | 0.1
TATCTCCA | -0.00899
CTATACAC | -0.191
AGAGGACG | 0.0187
CTACTTGC | 0.0781
CCTGCCAA | -0.137
AACTAGCT | -0.0226
ATGCGTTC | 0.142
ATCGGAGA | 0.216
GAACGGCC | 0.135
AGTGCTAG | -0.133
ACGATACA | -0.089
AATCTGTC | -0.00095
GTGAACAA | 0.1
ACTACCCC | -0.239
ACCCCGAA | 0.207
AAGTCCTA | -0.0369
AAACAGGG | -0.276
AAAGACGC | -0.0261
ACGCTTGC | -0.153
ACACGCAT | -0.0669

Sequence | PBM E-score
CACCAAAC | 0.0683
ATTACTTG | 0.0505
ATGCGCTG | -0.119
CCCGTGGA | -0.0641
GAGGAACA | 0.188
CCCCCCAA | -0.322
CCGCCGTA | 0.075
CTGTGACC | -0.213
GCGCCTAC | -0.0199
AGAAGGCG | -0.201
CTGGATCC | 0.143
GGGTGGGA | -0.23
AATACGGT | -0.0873
GAACTCTC | -0.117
GATCCTTA | -0.128
TCCCTGAA | 0.00408
CTAGTCTA | -0.208
AAATTCGT | 0.261
AACTCTAT | -0.0925
CCCGGTAA | 0.221
ACTACTAA | 0.0902
AATCTTTA | 0.161
ACCAGTTG | 0.0141
AACCAGGA | -0.0486
TAGCAAAA | 0.203

Sequence | PBM E-score
CCTAGACC | -0.214
CTACCATA | -0.109
GTGACCAC | -0.089
AAAAGCTC | 0.0775
CGTGTAAA | -0.0166
CCTTGGTC | -0.121
CTATAGAG | -0.0837
CGCCACGC | -0.0756
GAGACCGC | -0.0768
CGCTTGTC | -0.00249
GTGCTGTA | 0.0377
CATGAATC | -0.0648
AATCGTAA | -0.102
CCAGCATC | -0.069
CTACCCCA | -0.217
CTGATCTA | 0.0444
AGCAGCGG | -0.0135
ACCGCTCT | -0.0521
ATAAAGAA | 0.166
GGAAGACA | 0.0786
AATACCAT | 0.161
TAGTCATA | -0.117
